Assay results published in patent US5612341A, “Brominated hexahydroxybiphenyl derivatives” (Biotech Research Laboratories, priority 1995, dated 1997).
At least one read-out could not be matched to a standard name with certainty.

Experiments:
[1] = target: T1, HIV-1 reverse transcriptase (Human immunodeficiency virus type 1 group M subtype B, UniProt P04585); experiment: HIV-1 reverse transcriptase, RNA-dependent DNA polymerase associated activity; assay type: biochemical; parameters: HIV-1 reverse transcriptase was purified; made in house; host or cells: Escherichia coli JM 109 containing pKRT 2 (plasmid provided by W. C. Summers, Yale University); conditions: more sensitive with Poly(rA)-olig(dT)
Experimental: (§1) HIV-1 reverse transcriptase was purified using Escherichia coli JM 109 containing pKRT 2 kindly provided by W. C. Summers (Yale University).
(§2) Enzyme Assay. All reactions were developed in a total volume of 50 μl containing 50 mMTris HCl pH 7.8, 2 mM MgCl2, 100 μg/mL nuclease-free BSA, 1 mM dithiothreitol, 0.5 O.D.260 unit/mL of template-primer, and 330 nM of [^3 H]dNTP according to Cheng et al.

[2] = target: T1, HIV-1 reverse transcriptase; experiment: HIV-1 reverse transcriptase, DNA-dependent DNA polymerase associated activity; assay type: biochemical; parameters: HIV-1 reverse transcriptase was purified; made in house; host or cells: Escherichia coli JM 109 containing pKRT 2 (plasmid provided by W. C. Summers, Yale University); conditions: Poly(dA)-oligo(dT) versus Poly(rA)-oligo(dT)
Experimental: as §1, §2

COC(=O)c1c(Br)c(OC)c2c(c1-c1c3c(c(OC)c(Br)c1C(=O)OC)OCO3)OCO2 [Compound 5, 3,3'-Dibromo-4,4'-dimethoxy-5,6,5'6'-bimethylenedioxy-2,2'-dimethoxycarbonyl biphenyl]
sensitivity of enzyme with Poly(rA)-olig(dT) relative to Poly(rC)-olig(dG) [1]: about 6 times
efficacy against DNA polymerase activity relative to reverse transcriptase activity [2]: ~40 times
